PubChem BioAssay AID330 (DTP/NCI, 2004)
The list shows only some results of the screen, not a fair sample: it gathers tests that were run many times, whatever their T/C, doses with no T/C, and many T/C values between a quarter and a half above the control. Other doses and runs of a compound stand elsewhere. T/C gives the treated animals as a percentage of the vehicle group. Some doses have a count of surviving animals in place of a T/C: the source files T/C as zero there, which appears to mark a toxic dose or a test without result, not a measured value. Some survivor counts are full or nearly so, which does not show that the dose was tolerated: the source hardly ever lists a survival T/C far under the control, and the zero likely stands for such cases as well. Survivors were counted at the toxicity check, usually on the fifth day, unless a day is given; later deaths do not show. Schedules are NCI's codes, taken here to give the interval after Q, in days (D) or hours (H), and the number of doses after X. Some entries hold several experiments; their values stand side by side, smallest first. For survival time, this PubChem deposit counts one and a half times the control or more as active, and values a quarter to a half above the control carry no call in these data; other NCI protocols may use other cut-offs.

Tested on: P388 leukemia ip, CD2F1 mice, survival T/C
Assay: NCI In Vivo Anticancer Drug Screen. Data for tumor model P388 Leukemia (intraperitoneal) in CD2F1 (CDF1) mice
Settings: T/C endpoint: median survival time, higher T/C = longer survival
[1] = dose: 200.0 mg/kg/injection, schedule: Q01DX005 (ip), vehicle: Klucel (hydroxypropylcellulose) (HPC)
[2] = dose: 240.0 mg/kg/injection, schedule: Q01DX005 (ip), vehicle: saline with Tween-80
[3] = dose: 400.0 mg/kg/injection, schedule: Q01DX005 (ip), vehicle: Klucel (hydroxypropylcellulose) (HPC)
[4] = dose: 100.0 mg/kg/injection, schedule: Q01DX005 (ip), vehicle: Klucel (hydroxypropylcellulose) (HPC)
[5] = dose: 400.0 mg/kg/injection, schedule: Q04DX002 (ip), vehicle: saline with Tween-80

CCCCCCCC(=O)NC1CC(O[C@H]2C[C@](O)(C(C)=O)Cc3c(O)c4c(c(O)c32)C(=O)c2c(OC)cccc2C4=O)OC(C)C1O (stereo not given in full)
T/C (dose: 1.5 mg/kg/injection, schedule: Q01DX009 (ip), vehicle: other): 125 % of control | T/C (dose: 3.0 mg/kg/injection, schedule: Q01DX009 (ip), vehicle: other): 134 % of control | T/C (dose: 6.0 mg/kg/injection, schedule: Q01DX009 (ip), vehicle: other): 141 % of control | T/C (dose: 12.0 mg/kg/injection, schedule: Q01DX009 (ip), vehicle: other): 149 % of control | T/C (dose: 16.0 mg/kg/injection, schedule: Q04DX003 (ip), vehicle: other): 125 % of control | T/C (dose: 64.0 mg/kg/injection, schedule: Q04DX003 (ip), vehicle: other): 129 % of control | T/C (dose: 200.0 mg/kg/injection, schedule: Q04DX003 (ip), vehicle: other): 140 % of control

CC1CCC(C(=O)C(Cl)Cc2ccccc2)CC1 (stereo not given)
survivor count [1]: 3 of 6

CCOC(=O)C1=C(NC23CC4CC(CC(C4)C2)C3)OCC1=O
survivor count [2]: 3 of 6

CC(NNC(=S)N1CCCCCC1)c1ccc2ccccc2n1 (stereo not given)
T/C [1]: 130 % of control | survivor count [3]: 1 of 6 and 5 of 6

CC(=O)OC1(C)C(=O)OC/C2=C/CN(C)CCC(OC(=O)C(O)(C(C)Cl)CC1C)C2=O (stereo not given)
survivor count [4]: 1 of 6 | survivor count [1]: 0 of 6 | survivor count [3]: 0 of 6

O=C(NC1CCCCC1NC(=O)C12CC3CC(CC(C3)C1)C2)C12CC3CC(CC(C3)C1)C2 (stereo not given)
survivor count (dose: 25.0 mg/kg/injection, schedule: Q01DX005 (ip), vehicle: Klucel (hydroxypropylcellulose) (HPC)): 6 of 6 | survivor count (dose: 50.0 mg/kg/injection, schedule: Q01DX005 (ip), vehicle: Klucel (hydroxypropylcellulose) (HPC)): 6 of 6 | survivor count [4]: 6 of 6

CCCSCCCCSCCC
survivor count (dose: 400.0 mg/kg/injection, schedule: Q01DX009 (ip), vehicle: saline with Tween-80): 2 of 6

N=C(N)SC12CC3CC(CC(C3)C1)C2
survivor count (dose: 120.0 mg/kg/injection, schedule: Q01DX005 (ip), vehicle: saline with Tween-80): 0 of 6 | survivor count [2]: 0 of 6

COc1ccccc1/C(=N/[N+](C)(C)C)C(C)C
survivor count (dose: 50.0 mg/kg/injection, schedule: Q04DX002 (ip), vehicle: saline): 5 of 6 | survivor count (dose: 100.0 mg/kg/injection, schedule: Q04DX002 (ip), vehicle: saline): 0 of 6 | survivor count (dose: 200.0 mg/kg/injection, schedule: Q04DX002 (ip), vehicle: saline): 0 of 6

COc1ccc2c3c1OC1c4[nH]ncc4C[C@H]4[C@@H](C2)N(C)CC[C@]314 (stereo not given in full)
survivor count [5]: 2 of 6

CCCN=C(N)c1ccc(N=C(N)c2ccc(N=C(N)c3ccc(C(N)=NCCC)cc3)cc2)cc1
T/C (dose: 0.63 mg/kg/injection, schedule: Q01DX009 (ip), vehicle: saline): 140 % of control | T/C (dose: 5.0 mg/kg/injection, schedule: Q01DX009 (ip), vehicle: saline with Tween-80): 127 % of control | T/C (dose: 6.6 mg/kg/injection, schedule: Q01DX009 (ip), vehicle: saline): 136 % of control | T/C (dose: 10.0 mg/kg/injection, schedule: Q01DX009 (ip), vehicle: saline with Tween-80): 136 % of control | survivor count (dose: 100.0 mg/kg/injection, schedule: Q04DX003 (ip), vehicle: saline): 0 of 6 | survivor count (dose: 200.0 mg/kg/injection, schedule: Q04DX003 (ip), vehicle: saline): 0 of 6 | survivor count (dose: 400.0 mg/kg/injection, schedule: Q04DX003 (ip), vehicle: saline): 0 of 6

COc1ccc(CC2c3cc(OC)c(OC)c(OC)c3CC[N+]2(C)C)cc1Oc1ccc(CC2c3cc4c(c(OC)c3CCN2C)OCO4)cc1 (stereo not given)
survivor count (dose: 12.5 mg/kg/injection, schedule: Q04DX002 (ip), vehicle: saline): 1 of 6 | survivor count (dose: 100.0 mg/kg/injection, schedule: Q04DX002 (ip), vehicle: saline with Tween-80): 0 of 6 | survivor count (dose: 200.0 mg/kg/injection, schedule: Q04DX002 (ip), vehicle: saline with Tween-80): 0 of 6 | survivor count [5]: 0 of 6
